Consider 1 molecule from article PMC4772117.

By UniProt entry, the sequences of proteins in these tests, tags left out.
UniProt P03407: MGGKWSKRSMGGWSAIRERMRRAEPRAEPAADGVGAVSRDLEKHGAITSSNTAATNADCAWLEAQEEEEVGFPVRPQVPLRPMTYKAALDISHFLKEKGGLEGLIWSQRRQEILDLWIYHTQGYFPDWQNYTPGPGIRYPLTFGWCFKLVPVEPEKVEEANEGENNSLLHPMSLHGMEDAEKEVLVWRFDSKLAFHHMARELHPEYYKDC

These are yes or no findings as the source states them, for the method shown. In cells and extracts the contact can be indirect. Some entries that bind do so weakly or less than the wild type.

Experiment [1] has as its target HIV-1-LAI Nef (HIV-1 (strain LAI)) (UniProt P03406). The experiment is described as follows: co-IP; CHO cells cotransfected with HA-tagged Nef and ACOT8 constructs, 48 h; non-denaturing lysis buffer (10 mM Tris-HCl pH 7.5, 5 mM EDTA, 150 mM NaCl, 1% Triton X-100); anti-HA antibody overnight at 4 °C, protein G Dynabeads; blot with anti-ACOT8 antibody.
Experiment [2] deals with HIV-1-SF2 Nef (HIV-1 (strain SF2)) (UniProt P03407). The experiment is described as above.

B1: human peroxisomal thioesterase 8 (ACOT8), wild type (enzyme, UniProt O14734 1-319)
chain: MSSPQAPEDGQGCGDRGDPPGDLRSVLVTTVLNLEPLDEDLFRGRHYWVPAKRLFGGQIVGQALVAAAKSVSEDVHVHSLHCYFVRAGDPKLPVLYQVERTRTGSSFSVRSVKAVQHGKPIFICQASFQQAQPSPMQHQFSMPTVPPPEELLDCETLIDQYLRDPNLQKRYPLALNRIAAQEVPIEIKPVNPSPLSQLQRMEPKQMFWVRARGYIGEGDMKMHCCVAAYISDYAFLGTALLPHQWQHKVHFMVSLDHSMWFHAPFRADHWMLYECESPWAGGSRGLVHGRLWRQDGVLAVTCAQEGVIRVKPQVSESKL
With B1, the binding entry in experiment [1] is “binds”; in experiment [2] it was “no binding”.
